# Experiments:
# [1] = Bench-scale ozone / AOP treatment of tertiary filtered effluent: UV Transmittance; details: Ozone Only mode
# [2] = concentration at which the average person detects the odor; cited from earlier work
Structure (SMILES),change in UVT ([1]; dosing levels of 10 mg/l and 15 mg/l),increase in UVT ([1]; ozone dose of 5 mg/L),Odor threshold [2]
O=[O+][O-] [Ozone],decreases in UVT,5.3%,–
"COc1c(Cl)ccc(Cl)c1Cl [2,3,6-trichloroanisole]",–,–,7 ng/L
